From paper PMC6212833 (mBio, 2018)
Where a name gives a salt, the structure may show the parent alone.

Legend:
[1] = tested on: B. mandrillaris trophozoites; test: Nitroxoline structure-activity relationship dose response (CellTiter Glo); format: cell-based, Balamuthia mandrillaris; settings: 72 h, sigmoidal curve fit
[2] = tested on: B. mandrillaris trophozoites; format: cell-based, Balamuthia mandrillaris; settings: 20 µM, 72 h
Hep-G2 (liver) cells = test: Cytotoxicity dose response, Hep-G2; format: cell-based, human; settings: cell line CC50/B. mandrillaris trophozoite IC50
Protocol: (§1) B. mandrillaris trophozoites were seeded at 4,000 amoebae per well into opaque and clear-bottom 96-well plates (Corning). Homogenous populations of B. mandrillaris cysts generated by galactose induction were seeded at 4,000 amoebae per well into opaque 96-well plates. HFF-1 (fibroblast), H4 (glial), U87 (glial), HEK-293T (kidney), and Hep-G2 (liver) cells were seeded at 3,000 cells per well in opaque 96-well plates 24 h prior to addition of drug. Stocks of nitroxoline (Selleck Chemicals) were dissolved in 100% DMSO at 10 mM. Stocks of azithromycin (Selleck Chemicals), pentamidine isethionate (Selleck Chemicals), and miltefosine (Selleck Chemicals) were dissolved in water at 10 mM. Drug stocks were serially diluted in water to generate 12-point dilution series, which were then used to treat assay wells containing B. mandrillaris or human cells at final concentrations ranging from 0.39 µM to 400 µM in 100-µl total well volumes. Control wells were treated with vehicle (DMSO or water) at concentrations corresponding to the final vehicle concentrations in each drug dilution series. After incubation for 72 h, 50 µl of CTG was added to all assay wells. Luminescence was measured with a Promega GloMax-Multi+ plate reader 2, 4, and […] after CTG addition. All dose-response experiments were performed with at least three independent biological replicates. IC50 values were determined as previously described. To quantify encystment under treated and untreated conditions, amoebae in individual assay wells were resuspended thoroughly and the number of cysts and number of trophozoites in 10-µl samples were counted by the use of a hemocytometer (SKC, Inc.). Cysts and trophozoites are morphologically distinct, making them simple to distinguish with bright-field microscopy (example images are shown in Fig. S1 in the supplemental material). Encystment assays were performed with three independent biological replicates.

HEK-293T (kidney) cells = test: Cytotoxicity dose response, HEK-293T; format: cell-based, human; settings: cell line CC50/B. mandrillaris trophozoite IC50
Protocol: as §1

H4 (glial) cells = test: Cytotoxicity dose response, H4; format: cell-based, human; settings: cell line CC50/B. mandrillaris trophozoite IC50
Protocol: as §1

HFF-1 (fibroblast) cells = test: Cytotoxicity dose response, HFF-1; format: cell-based, human; settings: cell line CC50/B. mandrillaris trophozoite IC50
Protocol: as §1

U87 (glial) cells = test: Cytotoxicity dose response, U87; format: cell-based, human; settings: cell line CC50/B. mandrillaris trophozoite IC50
Protocol: as §1

[3] = tested on: U87, H4, HEK-293T, HFF-1 and Hep-G2 cell lines; test: Cytotoxicity, mean of all cell lines; format: cell-based, human; settings: cell line CC50/B. mandrillaris trophozoite IC50
Protocol: as §1

**Q.** `O=[N+]([O-])c1cccc2ncccc12` [compound 3, 5-Nitroquinoline] was tested. Which Hill slope [1] did it give?
**A.** 0.93

**Q.** Which B-score [2] does the source give for `CC(=O)[O][Hg][c]1ccccc1` [Phenylmercuric Acetate] here?
**A.** 20.74

**Q.** How did the Hill slope [1] turn out when `Oc1ccc(Br)c2cccnc12` [compound 6, 5-Bromo-8-hydroxyquinoline] was run?
**A.** 3.35

**Q.** `CO/N=C(\C(=O)N[C@@H]1C(=O)N2C(C(=O)O)=C(COC(N)=O)CS[C@H]12)c1ccco1` [Cefuroxime Sodium] was tested. Which B-score [2] did it give?
**A.** 2.50

**Q.** With `O=[N+]([O-])c1cnc2ccccc2c1O` [compound 19, 3-Nitro-4-quinolinol] as the compound, how does the Hill slope [1] read?
**A.** 1.07

**Q.** For `C[n+]1c2cc(N)ccc2cc2ccc(N)cc21` [Acriflavinium Hydrochloride], which B-score [2] is on record?
**A.** 20.40

**Q.** With `CC(C)c1c(C(=O)Nc2ccccc2)c(-c2ccccc2)c(-c2ccc(F)cc2)n1CC[C@@H](O)C[C@@H](O)CC(=O)O` [Atorvastatin] as the compound, how does the B-score [2] read?
**A.** 6.68

**Q.** With `COCc1c(C(C)C)nc(C(C)C)c(/C=C/[C@@H](O)C[C@@H](O)CC(=O)O)c1-c1ccc(F)cc1` [Cerivastatin, Cerivastatin Na, Cerivastatin] as the compound, how does the B-score [2] read?
**A.** 13.33

**Q.** `Oc1cccc2cccnc12` [compound 2, 8-Hydroxyquinoline] was tested. Which Hill slope [1] did it give?
**A.** 1.27

**Q.** Which B-score [2] does the source give for `CC#C[C@]1(O)CC[C@H]2[C@@H]3CCC4=CC(=O)CCC4=C3[C@@H](c3ccc(N(C)C)cc3)C[C@@]21C` [Mifepristone] here?
**A.** 2.28

**Q.** For `CCCCC(CC)CNC(=N)NC(=N)NCCCCCCNC(=N)NC(=N)NCC(CC)CCCC` (stereo not shown) [Alexidine Hydrochloride], which B-score [2] is on record?
**A.** 16.57

**Q.** With `CC[n+]1c(-c2ccccc2)c2cc(N)ccc2c2ccc(N)cc21` [Homidium Bromide] as the compound, how does the B-score [2] read?
**A.** 3.74

**Q.** How did the B-score [2] turn out when `C[CH2][Hg][S]c1ccccc1C(=O)O` [Ethylmercurithiosalicylic acid] was run?
**A.** 19.75

**Q.** Which B-score [2] does the source give for `O=C(CCCCCCC(=O)Nc1ccccc1)NO` [Vorinostat] here?
**A.** 6.71

**Q.** `CCCCCCCCCCCCCCCC[N+](C)(C)C` [Cetrimonium] was tested. Which B-score [2] did it give?
**A.** 10.02

**Q.** Which Hill slope [1] does the source give for `CCOc1ccc([N+](=O)[O-])c2cccnc12` [compound 17, 8-Ethoxy-5-nitroquinoline] here?
**A.** 1.37

**Q.** For `Cc1c(NC(=O)c2cccnc2)c(=O)n(-c2ccccc2)n1C` [Nifenazone], which B-score [2] is on record?
**A.** 12.46

**Q.** `CC[C@H]1OC(=O)[C@H](C)[C@@H](O[C@H]2C[C@@](C)(OC)[C@@H](O)[C@H](C)O2)[C@H](C)[C@@H](O[C@@H]2O[C@H](C)C[C@H](N(C)C)[C@H]2O)[C@](C)(O)C[C@@H](C)CN(C)[C@H](C)[C@@H](O)[C@]1(C)O` [Azithromycin] was tested. Which “SI Hep-G2 cell line” value (Hep-G2 (liver) cells) did it give?
**A.** 0.27

**Q.** And the “SI HEK-293T cell line” value (HEK-293T (kidney) cells)?
**A.** 0.59

**Q.** What about the “SI H4 cell line” value (H4 (glial) cells) of the same compound?
**A.** 0.39

**Q.** And the “SI HFF-1 cell line” value (HFF-1 (fibroblast) cells)?
**A.** 0.47

**Q.** What about the “SI U87 cell line” value (U87 (glial) cells) of the same compound?
**A.** 0.21

**Q.** What about the “SI mean of all cell lines” value [3] of the same compound?
**A.** 0.39

**Q.** For `O=C(O)c1ccccc1-c1c2cc(I)c(=O)c(I)c-2oc2c(I)c(O)c(I)cc12` [Erythrosine Sodium], which B-score [2] is on record?
**A.** 14.81

**Q.** For `N=C(N)c1ccc(OCCCCCOc2ccc(C(=N)N)cc2)cc1` [Pentamidine isethionate], which B-score [2] is on record?
**A.** 15.21

**Q.** What about the “SI HEK-293T cell line” value (HEK-293T (kidney) cells) of the same compound?
**A.** 0.52

**Q.** And the “SI H4 cell line” value (H4 (glial) cells)?
**A.** 0.63

**Q.** And the “SI U87 cell line” value (U87 (glial) cells)?
**A.** 2.26

**Q.** And the “SI mean of all cell lines” value [3]?
**A.** 1.12

**Q.** How did the B-score [2] turn out when `Cc1cc(-c2ccc(/N=N/c3ccc4c(S(=O)(=O)O)cc(S(=O)(=O)O)c(N)c4c3O)c(C)c2)ccc1/N=N/c1ccc2c(S(=O)(=O)O)cc(S(=O)(=O)O)c(N)c2c1O` [Evans Blue] was run?
**A.** 10.99

**Q.** Which Hill slope [1] does the source give for `O=C(O)c1ccc2ccccc2n1` [compound 18, 2-Quinolinecarboxylic acid] here?
**A.** 1.28

**Q.** Which results are given for `CCCCCCCCCCCCCCCCOP(=O)([O-])OCC[N+](C)(C)C` [Miltefosine]?
**A.** SI Hep-G2 cell line (Hep-G2 (liver) cells): 0.94; SI HEK-293T cell line (HEK-293T (kidney) cells): 1.21; SI H4 cell line (H4 (glial) cells): 0.15; SI HFF-1 cell line (HFF-1 (fibroblast) cells): 1.10; SI U87 cell line (U87 (glial) cells): 0.55; SI mean of all cell lines [3]: 0.79

**Q.** For `Cc1ccc(O)c2ncccc12` [compound 7, 5-Methylquinolin-8-ol], which Hill slope [1] is on record?
**A.** 3.57

**Q.** How did the B-score [2] turn out when `CNC(=C[N+](=O)[O-])NCCSCc1ccc(CN(C)C)o1` [Ranitidine] was run?
**A.** 14.55

**Q.** `c1cnc2c(c1)ccc1cccnc12` [compound 14, 1,10-Phenanthroline] was tested. Which Hill slope [1] did it give?
**A.** 3.71

**Q.** With `CN(C)c1ccc(C(=C2C=CC(=[N+](C)C)C=C2)c2ccc(N(C)C)cc2)cc1` [Gentian Violet] as the compound, how does the B-score [2] read?
**A.** 9.22

**Q.** With `Cc1cc(N)c2ccccc2[n+]1CCCCCCCCCC[n+]1c(C)cc(N)c2ccccc21` [Dequadin] as the compound, how does the B-score [2] read?
**A.** 13.04

**Q.** Which results are given for `O=[N+]([O-])c1ccc(O)c2ncccc12` [Nitroxoline, 8-hydroxy-5-nitroquinoline]?
**A.** B-score [2]: 23.18; SI Hep-G2 cell line (Hep-G2 (liver) cells): 3.29; SI HEK-293T cell line (HEK-293T (kidney) cells): 1.71; Hill slope [1]: 3.49; SI H4 cell line (H4 (glial) cells): 1.96; SI HFF-1 cell line (HFF-1 (fibroblast) cells): 18.23; SI U87 cell line (U87 (glial) cells): 8.77; SI mean of all cell lines [3]: 6.79

**Q.** `O=S(=O)(O)c1ccc(O)c2ncccc12` [compound 13, 8-Hydroxy-5-quinolinesulfonic acid] was tested. Which Hill slope [1] did it give?
**A.** 1.21

**Q.** `[H]/N=C(\N/C(=N/[H])NCCCCCCNC(=N)NC(=N)Nc1ccc(Cl)cc1)Nc1ccc(Cl)cc1` [Chlorhexidine] was tested. Which B-score [2] did it give?
**A.** 20.76

**Q.** For `NC(=O)c1ccc[n+]([C@@H]2O[C@H](COP(=O)([O-])OP(=O)(O)OC[C@H]3O[C@@H](n4cnc5c(N)ncnc54)[C@H](O)[C@@H]3O)[C@@H](O)[C@H]2O)c1` [Nadide], which B-score [2] is on record?
**A.** 15.71

**Q.** For `C=C1C[C@@H]2[C@H](CC[C@]3(C)C(=O)CC[C@@H]23)[C@@]2(C)C=CC(=O)C=C12` [Exemestane], which B-score [2] is on record?
**A.** 7.82

**Q.** For `[O-][n+]1cccc2cccc(O)c21` [compound 16, 8-Quinolinol N-oxide], which Hill slope [1] is on record?
**A.** 1.64

**Q.** `Oc1ccc(Cl)cc1Cc1cc(Cl)ccc1O` [Dichlorophene, Dichlorophen, Dichlorophene] was tested. Which B-score [2] did it give?
**A.** 5.34

**Q.** For `NC(=O)NO` [Hydroxyurea], which B-score [2] is on record?
**A.** 2.92

**Q.** With `N=C(N)c1ccc(/N=N/Nc2ccc(C(=N)N)cc2)cc1` [Diminazene] as the compound, how does the B-score [2] read?
**A.** 9.37
